These are yes or no findings as the source states them, for the method shown. In cells and extracts the contact can be indirect. Some binding calls cover weakened binding; strength is not graded here. Sequences can lack the tags named with a protein.
Target: …-… 2 (FLS2) receptor, GFP-tagged (Arabidopsis thaliana) (UniProt Q9FL28)
Test: co-IP; anti-GFP beads (Chromotek) on total protein of N. benthamiana leaves transiently co-expressing the GFP-tagged FLS2 protein and the tagged partner; leaves treated with MgCl2 or flg22 (1 uM, 10 min in the legends; 5 uM, 15 min in the methods); extraction buffer 50 mM HEPES pH 7.5, 1 mM EDTA, 0.5% Triton X-100, 1 mM DTT; on ice 30 min; blots with anti-myc, anti-HA, anti-GFP; for FLS2 with BIK1 also with SUMO1-HA co-expressed, with or without Desi3a-HA, in the presence of flg22

B1: SUMO E2 conjugating enzyme SCE1, HA-tagged (enzyme, UniProt Q42551 1-160)
chain: MASGIARGRLAEERKSWRKNHPHGFVAKPETGQDGTVNLMVWHCTIPGKAGTDWEGGFFPLTMHFSEDYPSKPPKCKFPQGFFHPNVYPSGTVCLSILNEDYGWRPAITVKQILVGIQDLLDTPNPADPAQTDGYHLFCQDPVEYKKRVKLQSKQYPALV
Question: How did the binding turn out when B1 was run?
Answer: binds

Source: publication PMC6281677
